## Assay results

Source: PubChem BioAssay AID1347107 (NCATS, 2019).

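Over two days of treatment, Rh30 pediatric muscle-tumor cells were checked for survival using a luminescent ATP-based viability readout.
Compounds ran as dilution series reaching 46 µM at the top, from about 0.78 nM for the 11-point MIPE set.
The number is the fitted AC50 potency for loss of cell viability; a lower value means a more potent cytotoxic effect.
Calls come from curve class and an activity score: actives score 40 to 100, inconclusives 1 to 39 (weak, partial, poorly fitted or top-dose-only curves), and inactives score 0.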

Values are in µM.
All entries here are filed as inconclusive.
Only part of the assay is shown, chiefly results filed as inconclusive.
A potency from a partial, single-point or poor curve is only a rough figure.
Some entries filed as inconclusive have a full curve.
Activity scores are not listed here.

{"smiles": "Cc1c[nH]c(C=C2C(=O)Nc3ccccc32)c1CCC(=O)O", "fitted potency (µM)": "6.619", "curve as filed": "cytotoxic, partial curve, poor fit"}
{"smiles": "CC(C)OC(=O)CCCC=CC[C@@H]1[C@H](C=C[C@@H](O)COc2cccc(C(F)(F)F)c2)[C@H](O)C[C@@H]1O", "fitted potency (µM)": "13.21", "curve as filed": "cytotoxic, partial curve"}
{"smiles": "O=C(O)c1cc(=O)[nH]c(=O)[nH]1", "fitted potency (µM)": "10.49", "curve as filed": "cytotoxic, partial curve, poor fit"}
{"smiles": "CN(C)C(=O)[C@H](O)[C@H](Cc1ccccc1)NC(=O)c1cc2cc(Cl)ccc2[nH]1", "fitted potency (µM)": "16.63", "curve as filed": "cytotoxic, partial curve"}
{"smiles": "CCCCc1ccc(NS(=O)(=O)c2ccc(C)c(C(=O)N3CCN(c4cccc(C)c4C)CC3)c2)cc1", "fitted potency (µM)": "16.63", "curve as filed": "cytotoxic, partial curve, poor fit"}
{"smiles": "N#CC(=Cc1ccc(O)c(O)c1)C(=O)NCc1ccccc1", "fitted potency (µM)": "18.65", "curve as filed": "cytotoxic, partial curve"}
{"smiles": "CNC(=O)CN1CCC(Oc2cc3c(Nc4cccc(Cl)c4F)ncnc3cc2OC)CC1", "fitted potency (µM)": "5.899", "curve as filed": "cytotoxic, partial curve"}
{"smiles": "O=C1NC(=O)C(=Cc2ccc3c(c2)OC(F)(F)O3)S1", "fitted potency (µM)": "13.21", "curve as filed": "cytotoxic, partial curve"}
{"smiles": "CCOC(=O)[C@@](C)(N)Cc1ccc(O)c(O)c1", "fitted potency (µM)": "29.86", "curve as filed": "cytotoxic, partial curve, poor fit"}
{"smiles": "COc1cc2nccc(Oc3ccc(NC(=O)Nc4cc(C)on4)c(Cl)c3)c2cc1OC", "fitted potency (µM)": "14.82", "curve as filed": "cytotoxic, partial curve"}
{"smiles": "CN(C)CCOC(c1ccccc1)c1ccccc1", "fitted potency (µM)": "33.17", "curve as filed": "cytotoxic, partial curve, poor fit"}
{"smiles": "COc1cc(Nc2ncc(F)c(Nc3ccc4c(n3)NC(=O)C(C)(C)O4)n2)cc(OC)c1OC", "fitted potency (µM)": "2.349", "curve as filed": "cytotoxic, full curve"}
{"smiles": "COc1cc(C(=O)NS(=O)(=O)c2ccccc2C)ccc1Cc1cn(C)c2ccc(NC(=O)OC3CCCC3)cc12", "fitted potency (µM)": "33.17", "curve as filed": "cytotoxic, single point"}
{"smiles": "COc1cc(F)c(F)c(Nc2ccc(I)cc2F)c1NS(=O)(=O)C1(C[C@H](O)CO)CC1", "fitted potency (µM)": "6.619", "curve as filed": "cytotoxic, partial curve"}
{"smiles": "Nc1ncnc2c1c(-c1cccc(OCc3ccccc3)c1)cn2C1CC(CN2CCC2)C1", "stereo": "configuration not stated", "fitted potency (µM)": "6.619", "curve as filed": "cytotoxic, partial curve"}
{"smiles": "Cc1cc(OCCCS(C)(=O)=O)cc(C)c1-c1cccc(COc2ccc3c(c2)OC[C@H]3CC(=O)O)c1", "fitted potency (µM)": "16.63", "curve as filed": "cytotoxic, partial curve"}
{"smiles": "CC(C)Oc1ccc2c(=O)c(-c3ccccc3)coc2c1", "fitted potency (µM)": "14.82", "curve as filed": "cytotoxic, partial curve"}
{"smiles": "Cc1cccc(C)c1OCC(=O)N[C@@H](Cc1ccccc1)[C@@H](O)C[C@H](Cc1ccccc1)NC(=O)[C@H](C(C)C)N1CCCNC1=O", "fitted potency (µM)": "16.63", "curve as filed": "cytotoxic, partial curve"}
{"smiles": "N#C[C@H]1C[C@H]2C[C@@H]2N1C(=O)[C@@H](N)C12CC3CC(CC(O)(C3)C1)C2", "fitted potency (µM)": "4.176", "curve as filed": "cytotoxic, partial curve"}

For reference, 2 entries once more:

- CN(C)CCOC(c1ccccc1)c1ccccc1 : fitted potency 33.17 µM (cytotoxic, partial curve, poor fit)
- O=C(O)c1cc(=O)[nH]c(=O)[nH]1 : fitted potency 10.49 µM (cytotoxic, partial curve, poor fit)